Reference: the supplement of paper PMC10849652
The list shows a part of the results.

Chains of the proteins cited; added tags and fusions are not shown. Lines headed by an entry give the natural chain unless they say otherwise; changes in a name come on top.
UniProt Q9UPM8: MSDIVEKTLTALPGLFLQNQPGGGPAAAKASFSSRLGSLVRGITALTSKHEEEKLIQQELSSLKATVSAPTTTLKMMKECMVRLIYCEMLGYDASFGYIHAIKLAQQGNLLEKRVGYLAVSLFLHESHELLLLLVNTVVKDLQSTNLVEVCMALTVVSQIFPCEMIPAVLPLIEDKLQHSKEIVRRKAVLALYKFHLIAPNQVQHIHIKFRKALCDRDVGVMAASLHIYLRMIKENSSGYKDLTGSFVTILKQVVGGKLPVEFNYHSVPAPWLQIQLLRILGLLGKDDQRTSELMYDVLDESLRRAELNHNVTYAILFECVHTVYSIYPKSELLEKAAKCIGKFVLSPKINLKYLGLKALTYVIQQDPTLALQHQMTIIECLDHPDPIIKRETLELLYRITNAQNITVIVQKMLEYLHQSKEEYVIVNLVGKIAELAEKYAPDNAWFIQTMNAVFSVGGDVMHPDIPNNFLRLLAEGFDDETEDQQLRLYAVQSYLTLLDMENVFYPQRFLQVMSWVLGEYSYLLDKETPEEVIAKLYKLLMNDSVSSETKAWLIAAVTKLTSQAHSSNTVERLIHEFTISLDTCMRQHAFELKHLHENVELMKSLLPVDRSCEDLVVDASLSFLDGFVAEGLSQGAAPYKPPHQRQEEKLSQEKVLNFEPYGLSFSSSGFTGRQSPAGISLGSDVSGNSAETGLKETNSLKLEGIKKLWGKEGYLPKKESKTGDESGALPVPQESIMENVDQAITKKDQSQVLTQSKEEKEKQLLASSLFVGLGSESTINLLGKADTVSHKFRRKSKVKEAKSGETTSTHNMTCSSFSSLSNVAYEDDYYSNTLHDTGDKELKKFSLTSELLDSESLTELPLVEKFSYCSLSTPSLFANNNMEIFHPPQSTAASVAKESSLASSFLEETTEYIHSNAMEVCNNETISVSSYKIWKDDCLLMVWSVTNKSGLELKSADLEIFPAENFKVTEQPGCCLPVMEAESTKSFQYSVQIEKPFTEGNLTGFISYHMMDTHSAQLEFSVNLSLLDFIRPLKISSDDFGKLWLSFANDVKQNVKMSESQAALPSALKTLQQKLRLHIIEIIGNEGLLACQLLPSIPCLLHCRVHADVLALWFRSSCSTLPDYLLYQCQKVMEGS
UniProt Q9BXS5: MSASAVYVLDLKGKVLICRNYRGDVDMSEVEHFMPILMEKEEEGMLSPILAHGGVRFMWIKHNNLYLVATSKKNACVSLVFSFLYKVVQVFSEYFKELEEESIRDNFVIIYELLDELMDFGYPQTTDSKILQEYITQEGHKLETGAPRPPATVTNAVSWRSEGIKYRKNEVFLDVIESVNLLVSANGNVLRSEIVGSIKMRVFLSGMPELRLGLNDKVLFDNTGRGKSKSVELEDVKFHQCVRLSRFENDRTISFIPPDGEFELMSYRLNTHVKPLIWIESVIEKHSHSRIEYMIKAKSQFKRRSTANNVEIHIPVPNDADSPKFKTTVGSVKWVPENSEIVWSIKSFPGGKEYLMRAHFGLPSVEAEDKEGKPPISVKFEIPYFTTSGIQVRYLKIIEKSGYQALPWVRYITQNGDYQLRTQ
UniProt P10398: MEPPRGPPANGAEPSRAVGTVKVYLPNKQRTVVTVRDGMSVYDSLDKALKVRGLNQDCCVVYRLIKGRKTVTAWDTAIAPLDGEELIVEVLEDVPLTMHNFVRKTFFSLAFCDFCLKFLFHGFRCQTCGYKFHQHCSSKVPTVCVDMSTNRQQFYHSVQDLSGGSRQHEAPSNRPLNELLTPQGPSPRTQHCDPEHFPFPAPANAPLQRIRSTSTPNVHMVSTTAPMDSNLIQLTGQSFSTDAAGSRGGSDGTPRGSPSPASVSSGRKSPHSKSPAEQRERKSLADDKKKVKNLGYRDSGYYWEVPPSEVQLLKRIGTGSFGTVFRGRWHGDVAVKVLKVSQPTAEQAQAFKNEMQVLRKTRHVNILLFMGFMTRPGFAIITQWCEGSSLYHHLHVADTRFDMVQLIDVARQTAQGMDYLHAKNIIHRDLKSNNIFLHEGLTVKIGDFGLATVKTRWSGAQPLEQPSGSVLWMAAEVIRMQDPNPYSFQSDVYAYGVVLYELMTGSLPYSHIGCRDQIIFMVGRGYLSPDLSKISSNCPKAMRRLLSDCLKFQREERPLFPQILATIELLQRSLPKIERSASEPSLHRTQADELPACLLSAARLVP
UniProt Q9NW15: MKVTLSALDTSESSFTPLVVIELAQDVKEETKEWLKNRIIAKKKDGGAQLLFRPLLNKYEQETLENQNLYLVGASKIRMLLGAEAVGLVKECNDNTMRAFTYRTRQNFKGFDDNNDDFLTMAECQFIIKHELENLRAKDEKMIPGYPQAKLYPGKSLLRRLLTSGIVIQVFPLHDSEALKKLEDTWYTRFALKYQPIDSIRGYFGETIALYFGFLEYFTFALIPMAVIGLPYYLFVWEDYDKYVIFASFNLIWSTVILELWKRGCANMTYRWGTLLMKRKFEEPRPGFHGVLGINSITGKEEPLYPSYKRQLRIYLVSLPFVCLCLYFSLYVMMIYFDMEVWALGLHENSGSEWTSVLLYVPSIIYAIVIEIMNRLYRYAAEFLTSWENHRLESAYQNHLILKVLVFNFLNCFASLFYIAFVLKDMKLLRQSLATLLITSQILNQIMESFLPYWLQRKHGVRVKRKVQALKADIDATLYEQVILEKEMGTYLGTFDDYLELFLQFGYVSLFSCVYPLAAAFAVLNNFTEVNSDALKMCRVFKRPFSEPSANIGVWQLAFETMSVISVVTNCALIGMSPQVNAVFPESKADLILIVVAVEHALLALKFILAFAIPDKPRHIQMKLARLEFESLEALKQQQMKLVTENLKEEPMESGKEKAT
UniProt Q8N6T3: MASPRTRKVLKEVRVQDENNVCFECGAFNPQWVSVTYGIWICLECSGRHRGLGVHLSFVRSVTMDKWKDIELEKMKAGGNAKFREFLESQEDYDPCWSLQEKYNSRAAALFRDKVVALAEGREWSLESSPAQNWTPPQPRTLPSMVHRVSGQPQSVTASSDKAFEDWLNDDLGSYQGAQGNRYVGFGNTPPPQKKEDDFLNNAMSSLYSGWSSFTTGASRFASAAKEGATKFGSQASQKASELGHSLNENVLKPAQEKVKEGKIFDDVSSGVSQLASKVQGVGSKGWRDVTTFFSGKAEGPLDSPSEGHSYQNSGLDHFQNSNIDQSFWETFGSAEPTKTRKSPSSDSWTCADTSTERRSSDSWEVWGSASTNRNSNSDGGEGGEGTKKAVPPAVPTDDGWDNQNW
UniProt Q9BQD7: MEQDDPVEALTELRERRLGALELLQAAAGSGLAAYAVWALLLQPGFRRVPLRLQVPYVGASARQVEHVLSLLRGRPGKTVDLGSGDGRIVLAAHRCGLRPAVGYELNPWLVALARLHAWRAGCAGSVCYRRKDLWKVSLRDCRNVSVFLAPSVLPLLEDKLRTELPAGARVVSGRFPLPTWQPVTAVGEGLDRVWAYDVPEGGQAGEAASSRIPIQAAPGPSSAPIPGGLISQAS
UniProt Q9H0R1: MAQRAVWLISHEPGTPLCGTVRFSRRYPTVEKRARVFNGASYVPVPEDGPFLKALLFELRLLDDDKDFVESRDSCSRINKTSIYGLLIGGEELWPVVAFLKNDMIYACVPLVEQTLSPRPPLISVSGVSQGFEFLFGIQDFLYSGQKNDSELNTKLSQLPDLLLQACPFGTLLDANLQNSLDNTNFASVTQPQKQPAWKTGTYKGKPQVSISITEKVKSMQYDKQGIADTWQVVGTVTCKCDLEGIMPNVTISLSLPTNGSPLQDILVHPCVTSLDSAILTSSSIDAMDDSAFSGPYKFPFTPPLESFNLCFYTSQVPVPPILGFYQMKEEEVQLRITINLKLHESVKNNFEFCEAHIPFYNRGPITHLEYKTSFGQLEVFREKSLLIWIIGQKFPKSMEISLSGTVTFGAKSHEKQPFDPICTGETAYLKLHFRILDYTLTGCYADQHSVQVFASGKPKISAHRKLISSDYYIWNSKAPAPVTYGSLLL
UniProt Q9BZZ5: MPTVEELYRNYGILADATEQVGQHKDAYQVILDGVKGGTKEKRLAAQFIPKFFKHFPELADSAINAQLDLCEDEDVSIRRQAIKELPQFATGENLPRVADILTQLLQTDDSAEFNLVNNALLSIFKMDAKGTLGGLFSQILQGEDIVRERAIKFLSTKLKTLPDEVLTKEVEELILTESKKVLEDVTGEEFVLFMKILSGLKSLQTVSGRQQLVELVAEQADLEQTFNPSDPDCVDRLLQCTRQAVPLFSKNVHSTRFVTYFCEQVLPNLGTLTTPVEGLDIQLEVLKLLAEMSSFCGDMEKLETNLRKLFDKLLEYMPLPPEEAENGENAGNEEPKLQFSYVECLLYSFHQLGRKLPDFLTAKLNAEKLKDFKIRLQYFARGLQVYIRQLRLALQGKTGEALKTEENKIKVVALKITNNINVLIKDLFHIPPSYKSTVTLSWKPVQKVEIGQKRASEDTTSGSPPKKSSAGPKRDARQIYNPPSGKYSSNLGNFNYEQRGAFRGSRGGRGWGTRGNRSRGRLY
UniProt Q10567: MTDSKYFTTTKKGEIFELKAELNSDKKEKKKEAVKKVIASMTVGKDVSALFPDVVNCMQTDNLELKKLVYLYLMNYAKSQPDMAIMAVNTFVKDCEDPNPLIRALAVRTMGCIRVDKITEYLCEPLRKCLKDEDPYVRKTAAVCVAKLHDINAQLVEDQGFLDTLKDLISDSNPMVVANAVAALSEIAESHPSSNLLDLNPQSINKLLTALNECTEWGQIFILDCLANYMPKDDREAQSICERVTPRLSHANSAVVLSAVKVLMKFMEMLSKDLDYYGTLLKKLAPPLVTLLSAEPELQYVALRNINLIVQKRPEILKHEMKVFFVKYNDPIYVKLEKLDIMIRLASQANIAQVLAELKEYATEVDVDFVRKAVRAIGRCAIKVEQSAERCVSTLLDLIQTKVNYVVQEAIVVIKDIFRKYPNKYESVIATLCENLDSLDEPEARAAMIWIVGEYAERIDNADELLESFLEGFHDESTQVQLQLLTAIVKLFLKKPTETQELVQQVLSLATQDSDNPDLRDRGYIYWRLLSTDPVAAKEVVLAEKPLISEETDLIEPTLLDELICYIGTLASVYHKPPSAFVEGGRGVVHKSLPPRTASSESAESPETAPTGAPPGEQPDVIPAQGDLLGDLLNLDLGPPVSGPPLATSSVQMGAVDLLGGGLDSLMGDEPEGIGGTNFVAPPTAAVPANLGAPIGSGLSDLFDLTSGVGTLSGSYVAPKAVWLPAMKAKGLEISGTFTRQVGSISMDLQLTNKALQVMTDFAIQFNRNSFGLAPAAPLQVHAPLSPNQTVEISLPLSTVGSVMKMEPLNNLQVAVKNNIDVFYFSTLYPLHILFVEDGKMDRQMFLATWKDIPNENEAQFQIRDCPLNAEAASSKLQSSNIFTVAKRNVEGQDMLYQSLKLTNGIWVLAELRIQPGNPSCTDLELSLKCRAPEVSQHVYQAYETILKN
UniProt P84085: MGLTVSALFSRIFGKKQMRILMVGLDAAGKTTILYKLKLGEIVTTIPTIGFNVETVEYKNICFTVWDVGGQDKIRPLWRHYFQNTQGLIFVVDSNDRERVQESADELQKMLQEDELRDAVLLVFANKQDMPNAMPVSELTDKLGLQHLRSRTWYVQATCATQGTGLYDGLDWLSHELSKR
UniProt P02654: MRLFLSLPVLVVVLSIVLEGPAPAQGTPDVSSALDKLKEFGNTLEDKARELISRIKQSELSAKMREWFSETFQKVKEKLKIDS
UniProt P61966: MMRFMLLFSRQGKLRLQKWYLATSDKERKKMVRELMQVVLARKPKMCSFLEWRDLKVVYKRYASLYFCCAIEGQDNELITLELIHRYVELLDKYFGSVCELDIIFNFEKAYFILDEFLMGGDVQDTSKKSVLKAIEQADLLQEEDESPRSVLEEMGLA
UniProt Q92688: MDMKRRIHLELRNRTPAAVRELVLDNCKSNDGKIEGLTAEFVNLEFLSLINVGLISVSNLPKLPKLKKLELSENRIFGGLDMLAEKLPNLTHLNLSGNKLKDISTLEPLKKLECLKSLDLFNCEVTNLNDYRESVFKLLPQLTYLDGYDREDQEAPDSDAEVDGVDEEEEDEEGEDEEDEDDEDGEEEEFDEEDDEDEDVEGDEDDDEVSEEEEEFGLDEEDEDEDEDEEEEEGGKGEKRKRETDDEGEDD
UniProt P07355, whole entry, looked up: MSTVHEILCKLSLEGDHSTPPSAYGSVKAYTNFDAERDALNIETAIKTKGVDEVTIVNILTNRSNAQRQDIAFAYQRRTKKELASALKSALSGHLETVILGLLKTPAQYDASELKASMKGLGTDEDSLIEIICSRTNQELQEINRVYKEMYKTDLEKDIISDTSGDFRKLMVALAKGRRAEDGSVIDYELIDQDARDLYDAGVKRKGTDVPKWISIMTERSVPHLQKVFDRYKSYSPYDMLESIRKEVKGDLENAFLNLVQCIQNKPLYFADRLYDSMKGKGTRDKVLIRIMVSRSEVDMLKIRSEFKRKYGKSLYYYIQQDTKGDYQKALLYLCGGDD

compound: CC1=C2C(=CC=C1)N=C(N(C2=O)C3=CC=CC=C3C)CN4C=NC5=C(N=CN=C54)N; assay: log2 fold change, soluble protein after heating vs DMSO (PISA); higher = thermal stabilisation; K562 cells, 10 uM, 30 min; active = over 0.2 and 3.5 SD of the protein, either way, in both replicates (recomputed)
In short: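 Soluble protein was quantified by TMTpro 16plex LC-MS/MS after channel sums were equalised. It was obtained as the supernatant after 21,000xg for 90 min from pooled aliquots of K562 cells (2×10^6 cells/mL, 10 μM compound, 30 min) heated for 3 min across 48°C-58°C and extracted in PBS with 0.5% NP-40 at 4°C. Thermal stability values are relative to control samples and come from duplicates. They are given as log2 fold changes.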

| Target | log2 fold change |
| --- | --- |
| AP4E1 (UniProt Q9UPM8) | inactive: 0.106 |
| ANXA7 (UniProt P20073) | inactive: 0.047 |
| AP1M1 (UniProt Q9BXS5) | inactive: 0.027 |
| AP2A2 isoform 2 (UniProt O94973) | inactive: 0.04 |
| ARAF (UniProt P10398) | inactive: 0.178 |
| ANO10 (UniProt Q9NW15) | inactive: 0.053 |
| ARFGAP1 (UniProt Q8N6T3) | inactive: 0.074 |
| ANTKMT (UniProt Q9BQD7) | inactive: 0.026 |
| AP5M1 (UniProt Q9H0R1) | inactive: -0.063 |
| AP2M1 (UniProt C9JTK4) | inactive: 0.131 |
| ARHGAP17 (UniProt Q68EM7) | inactive: 0.167 |
| ANTXR2 isoform 4 (UniProt P58335) | inactive: 0.065 |
| API5 isoform 2 (UniProt Q9BZZ5) | inactive: -0.012 |
| ANO6 isoform 2 (UniProt Q4KMQ2) | inactive: 0.023 |
| AP1B1 (UniProt Q10567) | inactive: 0.019 |
| ANXA5 (UniProt P08758) | inactive: 0.024 |
| ARF5 (UniProt P84085) | inactive: 0.041 |
| ARFGEF1 (UniProt Q9Y6D6) | inactive: 0.014 |
| APOC1 (UniProt P02654) | inactive: -0.038 |
| AP1S1 (UniProt P61966) | inactive: 0.124 |
| ANP32B (UniProt Q92688) | inactive: 0.086 |
| APOH (UniProt P02749) | inactive: 0.073 |
| ANXA2 isoform 2 (UniProt P07355) | inactive: 0.005 |

As a short view, some entries already given:

| Target | log2 fold change |
| --- | --- |
| ANTKMT (UniProt Q9BQD7) | inactive: 0.026 |
| AP5M1 (UniProt Q9H0R1) | inactive: -0.063 |
